This is an account of results in paper PMC12077180.

By UniProt entry, the sequences of proteins in these tests, tags left out.
UniProt P20339: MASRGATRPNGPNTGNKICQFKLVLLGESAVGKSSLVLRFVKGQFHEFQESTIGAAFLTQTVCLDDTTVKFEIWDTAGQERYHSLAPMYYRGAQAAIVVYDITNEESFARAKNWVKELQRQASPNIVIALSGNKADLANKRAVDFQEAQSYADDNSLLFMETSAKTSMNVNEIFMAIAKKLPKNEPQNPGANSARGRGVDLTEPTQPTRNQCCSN
UniProt P53618: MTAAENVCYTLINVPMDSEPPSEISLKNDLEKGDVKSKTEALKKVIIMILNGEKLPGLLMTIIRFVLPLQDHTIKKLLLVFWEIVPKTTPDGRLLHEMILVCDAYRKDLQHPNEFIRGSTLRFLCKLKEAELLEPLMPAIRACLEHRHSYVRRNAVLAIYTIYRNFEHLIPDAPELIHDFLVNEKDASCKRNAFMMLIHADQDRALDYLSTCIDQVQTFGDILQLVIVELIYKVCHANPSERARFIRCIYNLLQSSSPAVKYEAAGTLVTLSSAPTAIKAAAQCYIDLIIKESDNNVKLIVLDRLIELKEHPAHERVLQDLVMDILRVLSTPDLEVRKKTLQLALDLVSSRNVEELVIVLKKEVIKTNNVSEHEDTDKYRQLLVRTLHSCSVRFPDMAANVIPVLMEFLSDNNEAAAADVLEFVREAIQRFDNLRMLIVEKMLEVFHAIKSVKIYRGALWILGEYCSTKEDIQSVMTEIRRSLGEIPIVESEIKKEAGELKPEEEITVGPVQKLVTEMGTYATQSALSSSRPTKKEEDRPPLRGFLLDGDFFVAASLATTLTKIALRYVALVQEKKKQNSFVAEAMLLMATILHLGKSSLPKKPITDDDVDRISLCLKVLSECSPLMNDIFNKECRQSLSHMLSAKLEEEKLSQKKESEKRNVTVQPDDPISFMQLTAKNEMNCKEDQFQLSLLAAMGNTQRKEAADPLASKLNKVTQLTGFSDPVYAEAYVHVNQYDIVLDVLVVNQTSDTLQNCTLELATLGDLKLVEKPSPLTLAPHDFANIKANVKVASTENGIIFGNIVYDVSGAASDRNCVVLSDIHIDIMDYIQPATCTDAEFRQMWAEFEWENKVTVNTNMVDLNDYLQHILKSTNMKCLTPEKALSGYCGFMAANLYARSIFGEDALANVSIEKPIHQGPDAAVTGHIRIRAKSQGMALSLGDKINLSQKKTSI

No constants are given. Whether binding was seen depends on the method and setting. In cells and extracts the contact can be indirect. Some entries that bind do so weakly or less than the wild type.

Experiment [1] addresses RAB5 (Ras-associated protein RAB5A) (human (endogenous in HEK293T)) (UniProt P20339). In words: co-IP.
In experiment [2] the target is COPB1 (COP-I coat complex subunit beta 1) (human (endogenous in HEK293T)) (UniProt P53618). As to the kind of experiment: co-IP.

“SARS-CoV-2 NSP6-HA (from UniProt P0DTD1 3570-3859)”: the binding result in experiment [1] and in experiment [2] was “binds” each time.
“RAB5 (Ras-associated protein RAB5A) (from UniProt P20339 1-215)”: the binding entry in experiment [2] is “binds”.
